# Results from one PubChem assay

The results are deposited in PubChem (AID1053133; Broad Institute, 2014).

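Plate-reader measure of the Venus reporter marking one vaccinia stage in infected cells (the cell line is not named here); read time unknown. The test concentration is not given here. Percent change in Venus reporter signal; lower (more negative) values mean stronger inhibition of that viral stage.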

Values are in %. The controls that fix the scale are not given here. Common to all entries: measured here: Venus reporter, other viral stage. Part of the compounds only, not a random draw; the main read-out is not listed here.

{"smiles": "COc1ccc(-c2ccc3c(c2)[C@@H]2[C@@H](CCN2S(=O)(=O)c2ccccc2C)[C@H](CO)N3)cc1", "activity change (Venus) (%)": "-27.9"}
{"smiles": "C[C@@H]1CN([C@H](C)CO)S(=O)(=O)c2ccc(C#CC3CCCC3)cc2O[C@H]1CN(C)C", "activity change (Venus) (%)": "-67.68"}
{"smiles": "COc1ccc(NC(=O)N2CCCCN3[C@H](CO)[C@H](c4ccc(-c5ccccc5F)cc4)[C@H]3C2)cc1", "activity change (Venus) (%)": "-77.31"}
{"smiles": "Cc1cc(C(=O)Nc2cccc3c2O[C@@H](CN(C)Cc2ccc(Cl)c(Cl)c2)[C@H](C)CN([C@@H](C)CO)C3=O)n(C)n1", "activity change (Venus) (%)": "-32.42"}
{"smiles": "C[C@@H]1CCCCO[C@@H](CN(C)S(=O)(=O)c2ccc(Cl)cc2)[C@H](C)CN([C@H](C)CO)C(=O)c2cc(NC(=O)c3ccccc3)ccc2O1", "activity change (Venus) (%)": "-27.69"}
{"smiles": "C[C@H]1CN([C@@H](C)CO)S(=O)(=O)c2ccc(-c3ccccc3)cc2O[C@H]1CN(C)Cc1cccc(F)c1", "activity change (Venus) (%)": "-29.43"}
{"smiles": "C[C@H]1CN([C@@H](C)CO)C(=O)Cc2cc(NC(=O)C3CC3)ccc2O[C@H]1CN(C)Cc1ccc(Cl)c(Cl)c1", "activity change (Venus) (%)": "-28.97"}
{"smiles": "Cc1ccc(-c2cnc3c(c2)C(=O)N([C@H](C)CO)C[C@H](C)[C@@H](CN(C)C(=O)Cc2ccccc2)O3)cc1", "activity change (Venus) (%)": "-26.51"}
{"smiles": "O=C(Nc1ccc(-c2ccccc2)cc1)[C@@H]1[C@@H](CO)[C@@H]2Cn3c(cccc3=O)[C@@H]2N1CC1CCCCC1", "activity change (Venus) (%)": "-71.13"}
{"smiles": "COc1ccc(NC(=O)Nc2ccc3c(c2)C(=O)N([C@@H](C)CO)C[C@H](C)[C@H](CN(C)CC2CCCCC2)OCCCC[C@@H](C)O3)cc1", "activity change (Venus) (%)": "-48.99"}
{"smiles": "C[C@@H]1CCCCO[C@H](CN(C)Cc2ccc(Cl)c(Cl)c2)[C@@H](C)CN([C@@H](C)CO)C(=O)c2cc(NS(=O)(=O)c3ccc(Cl)cc3)ccc2O1", "activity change (Venus) (%)": "-56.34"}
{"smiles": "C[C@@H]1CN([C@H](C)CO)C(=O)c2cc(NC(=O)C3CCCCC3)ccc2O[C@@H](C)CCCCO[C@H]1CN(C)S(=O)(=O)c1ccc(F)cc1", "activity change (Venus) (%)": "-27.94"}
{"smiles": "CC(C)CC#Cc1ccc2c(c1)O[C@@H](CN(C)Cc1ccccn1)[C@@H](C)CN([C@H](C)CO)S2(=O)=O", "activity change (Venus) (%)": "-32.13"}
{"smiles": "C[C@H]1CN([C@@H](C)CO)S(=O)(=O)c2ccc(C#Cc3ccccc3)cc2O[C@H]1CN(C)S(C)(=O)=O", "activity change (Venus) (%)": "-25.62"}
{"smiles": "Cc1ccc(S(=O)(=O)Nc2ccc3c(c2)C(=O)N([C@H](C)CO)C[C@H](C)[C@@H](CN(C)S(=O)(=O)c2ccccc2)OCCCC[C@H](C)O3)cc1", "activity change (Venus) (%)": "-34.93"}
{"smiles": "C[C@@H]1CN([C@H](C)CO)C(=O)Cc2cc(NC(=O)C3CCCCC3)ccc2O[C@@H]1CN(C)Cc1ccc(C(F)(F)F)cc1", "activity change (Venus) (%)": "-25.19"}
{"smiles": "CN1CCCCN2[C@H](CO)[C@@H](c3ccc(-c4ccc(F)cc4)cc3)[C@@H]2C1", "activity change (Venus) (%)": "-29.98"}
{"smiles": "C[C@H](CO)N1C[C@H](C)[C@@H](CN(C)Cc2cccc(F)c2)Oc2cc(C#Cc3ccccn3)ccc2S1(=O)=O", "activity change (Venus) (%)": "-44.26"}

For reference, 2 entries once more:

CN1CCCCN2[C@H](CO)[C@@H](c3ccc(-c4ccc(F)cc4)cc3)[C@@H]2C1 read activity change (Venus) -29.98%.
COc1ccc(NC(=O)N2CCCCN3[C@H](CO)[C@H](c4ccc(-c5ccccc5F)cc4)[C@H]3C2)cc1 read activity change (Venus) -77.31%.